Data taken from PubChem BioAssay AID652054 (National Center for Advancing Translational Sciences (NCATS), 2013).
Hit rate of the full screen: of about 360,000 compounds, about 9,100 (2.5%) were called active. The shares of active, inactive and inconclusive entries below differ from those in the screen. No stated cut-off is given here; in the data, active means max response below about -50%; inconclusive means no clear call, values can overlap the other calls; inactive means above that.

Sequences of proteins named here, by UniProt entry; tags and fusion partners are left off.
UniProt P35462, whole entry, looked up: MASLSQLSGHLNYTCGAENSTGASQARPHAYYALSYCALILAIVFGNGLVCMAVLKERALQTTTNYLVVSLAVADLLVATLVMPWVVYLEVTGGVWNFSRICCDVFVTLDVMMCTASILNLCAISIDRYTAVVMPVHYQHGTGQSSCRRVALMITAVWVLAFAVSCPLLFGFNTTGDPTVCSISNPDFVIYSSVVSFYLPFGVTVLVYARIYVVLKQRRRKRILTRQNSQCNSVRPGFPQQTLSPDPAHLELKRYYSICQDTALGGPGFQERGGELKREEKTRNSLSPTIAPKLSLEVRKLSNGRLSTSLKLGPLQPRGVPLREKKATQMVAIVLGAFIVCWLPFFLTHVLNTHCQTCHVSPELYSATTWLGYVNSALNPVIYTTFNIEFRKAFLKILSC

What follows are compounds tested against D(3) dopamine receptor (Homo sapiens) (UniProt P35462) (assay: qHTS of D3 Dopamine Receptor Antagonist: qHTS). Conditions: D3R cells, DiscoveRx beta-arrestin luminescence, antagonist mode; active compounds read low.
Outline: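 Cells plated overnight at 1500 cells/well, then exposed to library compounds with dopamine controls for 90 minutes at 37 degrees C. DiscoveRx reagent added for 30–60 minutes at room temperature; luminescence read, quantitative HTS format.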
On the % scale 0 is the no-effect control and ±100 the full control effect.

Max response, negative = inhibition, inactive:
COc1cc(CN2CCCC(C(=O)Nc3cccc(-n4cccn4)c3)C2)ccc1F (configuration not stated) 2.19%
CCOC(=O)N(NC(=O)C(O)(C(C)C)C(C)C)c1ccccc1 -12.2%
[NH-]c1ncnc2c1N=C[N+]2=CC=CCO 8.45%
COC(=O)CN(c1nc(C)c(Br)c(OC)n1)S(=O)(=O)c1ccccc1 9.44%
CCOC(=O)c1c(C)[nH]c(C(=O)COC(=O)C2CC2)c1C -20.2%
Cc1ccccc1N=C/C=C1\N(C)c2ccccc2C1(C)C -16.9%
O=C(c1ccc(S(=O)(=O)Cc2cc(F)ccc2F)c([N+](=O)[O-])c1)N1CCCC1 -7.99%
CC(=O)NC1CCCc2c1cnn2-c1ccc(C(C)(C)C)cc1 (configuration not stated) 9.4%
Cc1ccc(NC(=O)CN(C(=O)N2CCN(C)CC2)S(=O)(=O)c2ccc(C)cc2)cc1 6.2%
COC(=O)[C@@]1(Cc2ccc(OC)cc2)[C@H]2c3cc(C(=O)N(C)C)n(Cc4ccc(OC(F)(F)F)cc4)c3C[C@H]2CN1C(=O)c1ccccc1 -5.49%
COc1ccc(CCNC(=O)CN(c2cc(OC)ccc2OC)S(=O)(=O)c2ccccc2)cc1 25.7%
CCOC(=O)CC1(C)Oc2ccccc2N1S(=O)(=O)c1ccc(C)cc1 (configuration not stated) -13.4%
COc1cc(-c2nc3c4ccccc4nc(=S)n3[nH]2)cc(OC)c1OC 11.5%
Cc1c(O)ccc2c(CN3CCN(C/C=C/c4ccccc4)CC3)cc(=O)oc12 -15.7%
COc1ccc(CC(N)c2csc(NC(=O)c3cc(C(C)(C)C)nn3Cc3ccccc3)n2)cc1 (configuration not stated) 16.4%
CCCCNC(=S)Nc1ccc(-c2nc3ccc(C)cc3s2)cc1 -12.1%
O=C(O)CCC(=O)c1ccc2sc3ccccc3c2c1 6.18%
CN(C)CCCOc1ccc(-c2ccc3nccn3c2)cn1 1.66%
O=C(N/N=C/c1cccnc1)c1sc2ccccc2c1Cl 1.16%
O=C(CN1CCCCC1)Nc1nc(-c2ccc(Cl)cc2)cs1 -9.44%
O=C(CSc1ccccn1)NCc1ccc2c(c1)OCO2 3.44%
O=C(O)C1CCN(c2ccc(S(=O)(=O)N3CCOCC3)cc2[N+](=O)[O-])CC1 -14.2%
O=C(Nc1cc([N+](=O)[O-])ccc1Cl)C(Sc1ccccc1)c1ccccc1 (configuration not stated) -15.8%
CN(C)c1cccc(C(=O)NNC(=O)/C=C/c2cccs2)c1 -13.9%
N=c1c2c(ncn1CCN1CCOCC1)Oc1ccc3ccccc3c1C2c1ccccc1 (configuration not stated) 10.7%
COc1ccc(-n2c(COc3ccc(Cl)cc3)nnc2SCc2ccc(C#N)cc2)cc1 -21.6%

Max response, negative = inhibition, active:
c1nc(N2CCN(Cc3ccc4c(c3)OCO4)CC2)c2[nH]cnc2n1 -62%
COc1ccc(/C=N/Nc2ccc([N+](=O)[O-])cc2)cc1O -52.6%
CC(C)n1[nH]c2ccccc2c1=O -66%
Cc1cc(C)c2c(-n3cccc3)c(C(=O)NNS(=O)(=O)c3ccc(Cl)cc3)sc2n1 -56%
Cc1cccc(-c2nc(S(=O)(=O)c3ccc(F)cc3)c(NCCCN3CCOCC3)o2)c1 -72.7%
Cc1ccc2c(c1)C(C)CC(C)(C)N2C(=O)NC1CCCCC1 (configuration not stated) -54.3%
CCCCNC(=O)Nc1ccnn1C1CCCCC1 -76.1%
COc1ccccc1N1CCN(C2CCN(S(=O)(=O)c3ccc(C)cc3)CC2)CC1 -70.2%
CC(=O)NS(=O)(=O)c1ccc(NC(=S)NC(=O)c2ccco2)cc1 -110%
CN(Cc1ccccc1)c1nc(-c2ccc([N+](=O)[O-])cc2)nc2ccccc12 -54%
CCCc1nc2oc3c(NCCN(C)C)ncnc3c2c2c1CCCC2 -54.2%
COc1cc(OC)c(OC)cc1CN1CCCC(C(=O)c2sccc2C)C1 (configuration not stated) -93%
CCOc1ccc(NS(=O)(=O)c2ccc(C(=O)NCC3CCCO3)cc2)cc1 (configuration not stated) -69.2%
CCCCCC(=O)N(O)C1CC(=O)N(c2ccccc2)C1=O (configuration not stated) -85.9%
CC1CCN(c2ccccc2NC(=S)NC(=O)c2cccs2)CC1 -58.2%
C=CCn1c(SCC(=O)Nc2ccc3c(c2)OCO3)nnc1-c1cc(Br)ccc1O -51.1%
Cc1ccc(COc2ccc(Br)cc2/C=N/O)cc1 -94.2%

Max response, negative = inhibition, inconclusive:
CC(C)(C)S(=O)(=O)c1nc2ccccc2s1 -35.7%
CCN1CCN(Cc2ccc(NC(=O)c3cc(NC(=O)c4cnnc5ccccc45)cc(OC)c3)cc2C(F)(F)F)CC1 -38.8%
CCOC(=O)N1CCN(C(=O)CSc2nc(=O)n3cc(C)ccc3n2)CC1 -34.3%
O=C(CCn1c2c(c3ccccc31)CCCC2)NNC(=O)c1ccc(Cl)c([N+](=O)[O-])c1 -39%
Cc1ccc(N(C(=O)CCCC(=O)Nc2ccccn2)C(C(=O)NC2CCCC2)c2ccc(O)cc2)cc1C (configuration not stated) -30.3%
Cc1cccc(-c2nnc(NC(=O)c3cccs3)s2)c1 -32.7%
CCOC(=O)/C=C(C)\C=C\c1c[nH]c2ccccc12 -36.4%
O=C(COC(=O)c1ccccn1)Nc1nc(-c2ccccc2)cs1 -31.2%
CCN(CC)S(=O)(=O)c1ccc(C(=O)OCC(=O)NCCN2C(=O)CSC2=O)cc1 -32.1%
COC(=O)c1ccc(C2Nc3ccc(/C(C)=N/NC(=O)C(OC)c4ccccc4)cc3C3C=CCC32)cc1 (configuration not stated) -35.7%
CC(Oc1ccc2c(-c3ccccc3)cc(=O)oc2c1)C(=O)N1CCC[C@@H]1C(N)=O (some centres not stated) -38.4%
COC(=O)[C@@]1(Cc2ccccc2)[C@H]2C(=O)N(Cc3ccccc3)C(=O)[C@H]2[C@H]2CN=C(SC)N21 -33.5%
O=C1CCc2cc(S(=O)(=O)NC(Cc3ccccc3)C(=O)NCC3CCCO3)ccc2N1 (configuration not stated) -30.2%
O=C(COc1ccc(Br)cc1CO)Nc1ccccc1 -39.7%
C/C(=N\NC1=NCCN1)c1ccc(N)c([N+](=O)[O-])c1 -35.9%
Cc1nc(-c2ccc(NC(=O)CC(C)C)cc2)cs1 -39.9%
CN1CCC(CNC(=O)Nc2ccccc2)(c2ccccc2)CC1 -40.3%
CCOC(=O)c1c(O)c2c([nH]c1=O)CCCC2 -31.2%
Cc1ccc(OCCNC(=O)CCNS(=O)(=O)c2ccc3ccccc3c2)cc1 -31.1%
O=C(c1ccc(C#CC2(O)CCCCC2)cc1)N1CCN(Cc2ccccc2)CC1 -41.1%
CC1CC(C)CN(CCCNC(=O)Cn2ncc3c(=O)oc4ccccc4c32)C1 (configuration not stated) -30.6%
CC[C@]12c3[nH]c4cc(-c5ccco5)ccc4c3CCN1C(=O)[C@@H](CC(=O)NCc1ccco1)C[C@@H]2C(=O)N1CCN(C(=O)C2CC2)CC1 -37.8%
NC(=S)N=Nc1c(O)[nH]c2cc(F)c(F)cc12 -34.5%
CN(C)c1cccc(C(=O)NNC(=O)NC2CCCCC2)c1 -40%
COc1ccc(-c2csc(NC(=S)NC(=O)c3ccccc3)n2)cc1Br -31.6%
CN(C)C1CN(Cc2cn(Cc3ccccc3)nn2)S(=O)(=O)C1 (configuration not stated) -31.2%
O=C(Nc1ccc([N+](=O)[O-])cc1)Nc1ccon1 -36.4%
Cc1cc(C)cc(NC(=S)NC2CC3CCC(C2)N3Cc2ccco2)c1 (configuration not stated) -44.9%
C[C@H](CO)N1C[C@H](C)[C@H](CN(C)Cc2ccccc2)Oc2c(NC(=O)Nc3ccc(F)cc3)cccc2C1=O -41.1%
COc1ccc(NC(=O)/C(C#N)=C/C=C/c2ccco2)cc1 -30.1%
COc1ccc(OC)c(CN2CCCC(C(=O)c3ccccc3SC)C2)c1 (configuration not stated) -43.9%
CCn1c(/C=C/Nc2ccccc2)[n+](CC)c2ccc(Cl)cc21 -49.4%
c1ccc(CCc2ccccn2)cc1 -42.6%
O=C(Nc1cccc(-c2cc3ccccc3oc2=O)c1)c1ccc(Br)o1 -42.9%
COc1ccccc1Oc1cc(-n2nc(C)cc2C)ncn1 -46.9%
S=c1[nH]nc(CSCc2ccccc2Cl)n1C1CCCCC1 -34.5%
COc1ccc(N2CCN(CCNC(=O)Nc3cc(Cl)ccc3OC)CC2)cc1 -39.1%
CCn1c2ccccc2c2nnc(SCCN3CCCCC3)nc21 -39.1%
Nc1nc(=S)c2[nH]c(=S)[nH]c2[nH]1 -30.3%
CCOc1cc(/C=N\NC(=O)C2C(=O)NCC2c2ccccc2)ccc1OC (configuration not stated) -33.9%
CC1(C)Cc2ccccc2-c2nc(NCCO)n(-c3ccccc3)c(=O)c21 -47.7%
CCN(CC(=O)Nc1ccc(Br)cc1)C(=O)Cc1cccc(F)c1 -39%
CNc1nc(N)c([N+](=O)[O-])c(Nc2ccccc2OC)n1 -39.2%
CCOC(=O)c1c(C)[nH]c(C(=O)N/N=C/c2cc([N+](=O)[O-])ccc2O)c1C -48.1%

22 structures already listed, arranged by length of the SMILES, low to high.
Max response, negative = inhibition, inconclusive:
c1ccc(CCc2ccccn2)cc1 -42.6%
CC(C)(C)S(=O)(=O)c1nc2ccccc2s1 -35.7%
CCOC(=O)c1c(O)c2c([nH]c1=O)CCCC2 -31.2%
COc1ccccc1Oc1cc(-n2nc(C)cc2C)ncn1 -46.9%
CCn1c2ccccc2c2nnc(SCCN3CCCCC3)nc21 -39.1%
S=c1[nH]nc(CSCc2ccccc2Cl)n1C1CCCCC1 -34.5%
CCOC(=O)/C=C(C)\C=C\c1c[nH]c2ccccc12 -36.4%
COc1ccc(NC(=O)/C(C#N)=C/C=C/c2ccco2)cc1 -30.1%
CNc1nc(N)c([N+](=O)[O-])c(Nc2ccccc2OC)n1 -39.2%
CCN(CC(=O)Nc1ccc(Br)cc1)C(=O)Cc1cccc(F)c1 -39%
COc1ccc(OC)c(CN2CCCC(C(=O)c3ccccc3SC)C2)c1 (configuration not stated) -43.9%
Cc1cc(C)cc(NC(=S)NC2CC3CCC(C2)N3Cc2ccco2)c1 (configuration not stated) -44.9%
COc1ccc(-c2csc(NC(=S)NC(=O)c3ccccc3)n2)cc1Br -31.6%
CCOc1cc(/C=N\NC(=O)C2C(=O)NCC2c2ccccc2)ccc1OC (configuration not stated) -33.9%
Cc1ccc(OCCNC(=O)CCNS(=O)(=O)c2ccc3ccccc3c2)cc1 -31.1%
CC1CC(C)CN(CCCNC(=O)Cn2ncc3c(=O)oc4ccccc4c32)C1 (configuration not stated) -30.6%
CCN(CC)S(=O)(=O)c1ccc(C(=O)OCC(=O)NCCN2C(=O)CSC2=O)cc1 -32.1%
CCOC(=O)c1c(C)[nH]c(C(=O)N/N=C/c2cc([N+](=O)[O-])ccc2O)c1C -48.1%
O=C(CCn1c2c(c3ccccc31)CCCC2)NNC(=O)c1ccc(Cl)c([N+](=O)[O-])c1 -39%
COC(=O)c1ccc(C2Nc3ccc(/C(C)=N/NC(=O)C(OC)c4ccccc4)cc3C3C=CCC32)cc1 (configuration not stated) -35.7%
CCN1CCN(Cc2ccc(NC(=O)c3cc(NC(=O)c4cnnc5ccccc45)cc(OC)c3)cc2C(F)(F)F)CC1 -38.8%
COC(=O)[C@@]1(Cc2ccccc2)[C@H]2C(=O)N(Cc3ccccc3)C(=O)[C@H]2[C@H]2CN=C(SC)N21 -33.5%
